Assay results reported in US12116636B2, “Methods for evaluating tumor cell spheroids using 3D microfluidic cell culture device” (Dana-Farber Cancer Institute, Inc., priority 2017, dated 2024).

Tested on: T1, off-target kinases
T1 construct: IC50 (nM); other: Adapta, ATP Km app; Hillslope; LRRK2: PV4873/1106714; IRAK1: PV4403/880118
Experiment: SelectScreen Kinase Profiling, IC50 for off-target kinases
Type: biochemical
Settings: Adapta, ATP Km app

## N#Cc1cc(-c2ncnc(Nc3ccc(N4CCN(C5COC5)CC4)cc3)n2)ccc1OC1CCOCC1 [Compound 1, 5-(4-((4-(4-(oxetan-3-yl)piperazin-1-yl)phenyl)amino)-1,3,5-triazin-2-yl)-2-((tetrahydro-2H-pyran-4-yl)oxy)benzonitrile]
  Hillslope: 0.99 and 1

Where “and” joins values, the source holds several entries; their conditions need not be identical. Identical values can stand only once.
